Laboratory results: PubChem BioAssay AID652243 (Drosophila RNAi Screening Center, 2013)
Assay: 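Knock-downs that decrease or increase androgen receptor reporter signal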 (primary screen). System: Drosophila S2R+ cells. Reagent: long dsRNA against Drosophila genes. Timing: 72 h (48 h, then 24 h hormone). Treatment: synthetic androgen R1881 at 10 nM for 24 h. Measurement: 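Firefly light from an androgen-responsive reporter and Renilla control light per well, raw and unnormalised, for each of two replicates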. Direction: firefly reporter light: higher = more light from androgen-responsive reporter; Renilla control light: higher = more constitutive control signal (cell number, transfection). Call rule: 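Hit when the log firefly-to-Renilla ratio dropped or increased by a fixed fold versus the mean of GFP or LacZ controls across duplicate plates; lowering cut given as 1.5 and as 3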. Calls: active = hit: reporter lowered or raised; inactive = no hit.
The screen tested about 24,000 reagents; this is an unselected part of those with a known target gene and a result. In the full data, 246 (1%) are marked active. 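Plates not normalised; calls are printed but the firefly/Renilla ratio behind them is not deposited; fold cut for lowering reported inconsistently.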 Raw values are not corrected between plates. Reagents against one gene are numbered here. Names joined by + are all predicted targets of the reagent. Not stated in the record: the amount of reagent.

Depletion of Mybbp1A gave: firefly reporter light, replicate 1 = 28781; firefly reporter light, replicate 2 = 35062; Renilla control light, replicate 1 = 4.92e5; Renilla control light, replicate 2 = 3.34e5; inactive. With knock-down of Mst77F, the screen gave firefly reporter light, replicate 1 = 2.36e5; firefly reporter light, replicate 2 = 2.67e5; Renilla control light, replicate 1 = 2.53e6; Renilla control light, replicate 2 = 2.90e6; inactive. Sec10 #1 showed firefly reporter light, replicate 1 = 66644; firefly reporter light, replicate 2 = 76996; Renilla control light, replicate 1 = 4.38e5; Renilla control light, replicate 2 = 4.59e5; inactive. With knock-down of Sec10 #2, the record shows firefly reporter light, replicate 1 = 4.03e5; firefly reporter light, replicate 2 = 5.01e5; Renilla control light, replicate 1 = 1.17e6; Renilla control light, replicate 2 = 1.10e6; inactive. After knock-down of bor the results were firefly reporter light, replicate 1 = 1.45e5; firefly reporter light, replicate 2 = 86752; Renilla control light, replicate 1 = 1.54e6; Renilla control light, replicate 2 = 1.30e6; inactive. Cnb showed firefly reporter light, replicate 1 = 1.04e6; firefly reporter light, replicate 2 = 8.15e5; Renilla control light, replicate 1 = 1.37e6; Renilla control light, replicate 2 = 1.16e6; inactive.

Stlk #1 showed firefly reporter light, replicate 1 = 7.94e5; firefly reporter light, replicate 2 = 7.19e5; Renilla control light, replicate 1 = 1.56e6; Renilla control light, replicate 2 = 1.44e6; inactive. Stlk #2 scored inactive. Knock-down of CG13077 resulted in: firefly reporter light, replicate 1 = 2.56e5; firefly reporter light, replicate 2 = 3.21e5; Renilla control light, replicate 1 = 2.05e6; Renilla control light, replicate 2 = 2.19e6; inactive. CG3176 + CR18166 + CG32817 #1 scored firefly reporter light, replicate 1 = 8.64e5; firefly reporter light, replicate 2 = 6.56e5; Renilla control light, replicate 1 = 6.87e5; Renilla control light, replicate 2 = 4.15e5; inactive. With knock-down of CG3176 + CR18166 + CG32817 #2, the screen gave firefly reporter light, replicate 1 = 9.63e5; firefly reporter light, replicate 2 = 6.85e5; Renilla control light, replicate 1 = 5.05e5; Renilla control light, replicate 2 = 2.18e5; inactive. After knock-down of CG3176 + CR18166 + CG32817 #3, the record shows firefly reporter light, replicate 1 = 1.25e5; firefly reporter light, replicate 2 = 87582; Renilla control light, replicate 1 = 8.31e5; Renilla control light, replicate 2 = 5.38e5; inactive.

Against CG3176 + CR18166 + CG32817 #4 the deposit lists firefly reporter light, replicate 1 = 1.95e5; firefly reporter light, replicate 2 = 4.49e5; Renilla control light, replicate 1 = 7.02e5; Renilla control light, replicate 2 = 1.03e6; inactive. Against CG7906 #1, the values are firefly reporter light, replicate 1 = 6.84e5; firefly reporter light, replicate 2 = 5.11e5; Renilla control light, replicate 1 = 1.38e6; Renilla control light, replicate 2 = 1.40e6; inactive. Against CG7906 #2, the entry reads firefly reporter light, replicate 1 = 3.02e5; firefly reporter light, replicate 2 = 3.02e5; Renilla control light, replicate 1 = 6.34e5; Renilla control light, replicate 2 = 6.34e5; inactive.
